Results deposited as PubChem BioAssay AID493246 (Drosophila RNAi Screening Center, 2011)
In all, the deposit lists about 21,000 reagents; this is an unselected part of those with a known target gene and a result. In the full data, 429 (2%) got an active call. 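Values are raw and not normalised between plates; calls rest on per-plate z-scores that were not deposited.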 Names joined by + are all predicted targets of the reagent. Not given: the amount of reagent, the time to read-out.

Purpose: 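Genome-wide search for dsRNAs that reduce cell number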 (primary screen)
System: Drosophila Kc and S2R+ cells
Knock-down reagent: long dsRNA against Drosophila genes
Detection: 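Raw, unnormalised count of remaining cells in each well; per-plate z-scores of cell number underlie the calls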
Direction: Kc cell number and S2R+ cell number: higher = more cells remaining
Hit rule: 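Counted as a hit if cell number falls by a z-score of at least 3 within its plate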

target,DRSC id,"Kc cell number, rep 1","Kc cell number, rep 2","S2R+ cell number, rep 1","S2R+ cell number, rep 2",Call
CG3650,DRSC04401,1.55e6,1.58e6,1.36e6,1.45e6,inactive
Tat (Tyrosine aminotransferase),DRSC19602,1.50e6,1.47e6,1.09e6,1.09e6,inactive
CG10209,DRSC05980,1.47e6,1.50e6,1.17e6,1.30e6,inactive
TfIIEalpha (Transcription factor IIEalpha),DRSC11303,1.35e6,1.48e6,1.25e6,1.20e6,inactive
geko,DRSC10044,1.20e6,1.36e6,1.29e6,1.41e6,inactive
geko,DRSC10045,1.41e6,1.57e6,1.36e6,1.45e6,inactive
CtsB (Cathepsin B),DRSC19361,5.37e5,,8.15e5,,inactive
Task6 (TWIK-related acid-sensitive K[+] channel 6),DRSC16530,1.28e6,1.28e6,1.16e6,1.23e6,inactive
CG13908 (retired record),DRSC08378,1.57e6,1.38e6,9.93e5,1.26e6,inactive
CG5989,DRSC10565,1.47e6,1.60e6,1.23e6,1.08e6,inactive
HDAC1 (Histone deacetylase 1),DRSC08696,1.49e6,1.56e6,1.09e6,1.09e6,inactive
Btk (Bruton tyrosine kinase),DRSC02008,1.50e6,1.59e6,1.25e6,1.38e6,inactive
Btk (Bruton tyrosine kinase),DRSC02666,1.43e6,1.53e6,5.08e5,7.00e5,inactive
CG16894,DRSC06634,1.42e6,1.42e6,1.14e6,1.18e6,inactive
RYa-R (RYamide receptor),DRSC16757,5.35e5,,8.03e5,,inactive
"Arpc3A (Actin-related protein 2/3 complex, subunit 3A)",DRSC15596,1.30e6,1.30e6,1.17e6,1.29e6,inactive
cyp33 (cyclophilin-33),DRSC07600,1.35e6,1.47e6,1.13e6,1.09e6,inactive
lncRNA:CR32657 (long non-coding RNA:CR32657),DRSC19403,1.58e6,1.51e6,1.10e6,1.23e6,inactive
CR18275 + CR18166 + CG32817,DRSC17249,1.22e6,1.62e6,1.06e6,1.12e6,inactive
PGRP-LE (Peptidoglycan recognition protein LE),DRSC20137,6.12e5,,8.98e5,,inactive
S-Lap1 (Sperm-Leucylaminopeptidase 1),DRSC10627,1.45e6,1.47e6,1.23e6,1.17e6,inactive
CG31031 (retired record),DRSC13964,1.15e6,1.58e6,1.14e6,1.16e6,inactive
RhoGAP71E (Rho GTPase activating protein at 71E),DRSC10232,1.86e6,1.87e6,1.13e6,1.23e6,inactive
RhoGAP71E (Rho GTPase activating protein at 71E),DRSC10837,1.67e6,1.80e6,9.93e5,1.11e6,inactive
RhoGAP71E (Rho GTPase activating protein at 71E),DRSC10838,1.53e6,1.73e6,1.35e6,1.69e6,inactive
CG14823,DRSC10194,1.44e6,1.38e6,1.24e6,1.17e6,inactive
CG15385,DRSC00399,1.65e6,1.71e6,1.10e6,1.23e6,inactive
Cpr76Bc (Cuticular protein 76Bc),DRSC11062,1.51e6,1.67e6,1.39e6,1.48e6,inactive
CG12522,DRSC09088,1.61e6,1.68e6,1.15e6,1.33e6,inactive
CG33981 + fab1,DRSC07412,1.37e6,1.42e6,1.10e6,1.14e6,inactive
CG3407,DRSC00603,1.32e6,1.35e6,9.07e5,9.20e5,inactive
CG42544,DRSC12451,1.37e6,1.48e6,1.06e6,1.19e6,inactive
fz3 (frizzled 3),DRSC18779,1.47e6,1.46e6,9.90e5,1.13e6,inactive
Cpr78Cb (Cuticular protein 78Cb),DRSC11847,1.46e6,1.54e6,1.26e6,1.39e6,inactive
CG33128,DRSC00294,1.57e6,1.59e6,1.17e6,1.35e6,inactive
CG4424,DRSC15576,1.46e6,1.54e6,1.10e6,1.09e6,inactive
CG12159,DRSC06114,1.40e6,1.55e6,1.18e6,1.30e6,inactive
hppy (happyhour),DRSC07014,1.57e6,1.55e6,1.17e6,1.25e6,inactive
hppy (happyhour),DRSC07015,1.58e6,1.56e6,1.20e6,1.38e6,inactive
hppy (happyhour),DRSC07016,1.60e6,1.58e6,1.25e6,1.34e6,inactive
PpD5 (Protein phosphatase D5),DRSC04641,1.71e6,1.86e6,1.45e6,4.76e5,inactive
Obp50d (Odorant-binding protein 50d),DRSC05483,1.53e6,1.53e6,1.09e6,1.20e6,inactive
CG7016,DRSC16174,1.60e6,1.71e6,1.01e6,1.02e6,inactive
CG13046,DRSC09927,1.53e6,1.59e6,1.36e6,1.45e6,inactive
CG2975,DRSC00556,1.58e6,1.57e6,1.03e6,1.30e6,inactive
CG17005,DRSC02556,1.51e6,1.67e6,1.25e6,1.36e6,inactive
RpL11 (Ribosomal protein L11),DRSC07537,8.29e5,1.00e6,5.98e5,6.65e5,active
drosha,DRSC07607,1.36e6,1.47e6,9.37e5,8.47e5,inactive
CG13482,DRSC10024,1.55e6,1.61e6,1.33e6,1.31e6,inactive
CG18233,DRSC10308,1.40e6,1.54e6,1.33e6,1.41e6,inactive
BRWD3,DRSC15369,1.58e6,1.72e6,1.14e6,1.19e6,inactive
BRWD3,DRSC16032,1.43e6,1.52e6,1.04e6,1.10e6,inactive
Rsod (Related to Sod),DRSC15424,1.45e6,1.46e6,9.92e5,1.07e6,inactive
Cht12 (Chitinase 12),DRSC03844,5.00e5,,8.81e5,,inactive
VhaM9.7-b (Vacuolar H[+] ATPase M9.7 subunit b),DRSC11841,1.39e6,1.46e6,1.27e6,1.31e6,inactive
CG3603,DRSC18317,1.48e6,1.48e6,1.04e6,1.18e6,inactive
CG42365,DRSC04266,1.45e6,1.56e6,1.27e6,3.28e5,inactive
CG13841,DRSC14691,1.34e6,1.38e6,7.97e5,9.62e5,inactive
Ndc80,DRSC20221,7.39e5,,8.55e5,,inactive

8 neighbouring entries from above, for reference:
target,DRSC id,"Kc cell number, rep 1","Kc cell number, rep 2","S2R+ cell number, rep 1","S2R+ cell number, rep 2",Call
CG16894,DRSC06634,1.42e6,1.42e6,1.14e6,1.18e6,inactive
RYa-R (RYamide receptor),DRSC16757,5.35e5,,8.03e5,,inactive
"Arpc3A (Actin-related protein 2/3 complex, subunit 3A)",DRSC15596,1.30e6,1.30e6,1.17e6,1.29e6,inactive
cyp33 (cyclophilin-33),DRSC07600,1.35e6,1.47e6,1.13e6,1.09e6,inactive
lncRNA:CR32657 (long non-coding RNA:CR32657),DRSC19403,1.58e6,1.51e6,1.10e6,1.23e6,inactive
CR18275 + CR18166 + CG32817,DRSC17249,1.22e6,1.62e6,1.06e6,1.12e6,inactive
PGRP-LE (Peptidoglycan recognition protein LE),DRSC20137,6.12e5,,8.98e5,,inactive
S-Lap1 (Sperm-Leucylaminopeptidase 1),DRSC10627,1.45e6,1.47e6,1.23e6,1.17e6,inactive
